Common to all, as to assay: co-IP; FLAG-tagged and V5-tagged proteins coexpressed in HEK293T cells (calcium phosphate, 24 h); lysis in 1% Triton X-100, 20 mM Tris pH 7.5, 50 mM NaCl, 50 mM NaF, 15 mM Na4P2O7, 0.1 mM EDTA; anti-FLAG M2 agarose beads 2 h; Western blot with anti-V5 and anti-FLAG
For orientation: In western blotting, separated proteins are transferred to a membrane and probed.

By UniProt entry, the sequences of proteins in these tests, tags left out.
UniProt P55884: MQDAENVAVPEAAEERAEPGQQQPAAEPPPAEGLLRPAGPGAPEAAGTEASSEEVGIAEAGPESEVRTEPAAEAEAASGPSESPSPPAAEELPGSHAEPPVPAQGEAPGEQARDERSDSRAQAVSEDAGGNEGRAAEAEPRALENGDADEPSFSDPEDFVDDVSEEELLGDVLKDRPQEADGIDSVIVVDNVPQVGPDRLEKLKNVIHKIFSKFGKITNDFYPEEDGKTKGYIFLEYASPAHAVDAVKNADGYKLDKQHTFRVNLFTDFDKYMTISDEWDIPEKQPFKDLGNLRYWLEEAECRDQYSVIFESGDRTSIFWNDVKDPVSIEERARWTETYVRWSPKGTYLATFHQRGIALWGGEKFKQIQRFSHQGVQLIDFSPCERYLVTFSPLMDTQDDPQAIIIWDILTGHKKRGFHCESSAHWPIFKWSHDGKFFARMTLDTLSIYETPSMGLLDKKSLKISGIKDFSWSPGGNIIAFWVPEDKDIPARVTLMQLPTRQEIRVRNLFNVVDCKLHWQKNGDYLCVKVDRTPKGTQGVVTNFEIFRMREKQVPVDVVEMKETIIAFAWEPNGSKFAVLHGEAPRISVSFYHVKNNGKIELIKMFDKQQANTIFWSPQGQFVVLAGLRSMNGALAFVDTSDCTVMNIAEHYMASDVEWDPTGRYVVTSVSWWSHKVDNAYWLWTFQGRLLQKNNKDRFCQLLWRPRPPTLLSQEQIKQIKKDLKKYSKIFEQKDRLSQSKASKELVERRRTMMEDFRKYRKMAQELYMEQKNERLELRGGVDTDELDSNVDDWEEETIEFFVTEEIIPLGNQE
UniProt Q7Z494: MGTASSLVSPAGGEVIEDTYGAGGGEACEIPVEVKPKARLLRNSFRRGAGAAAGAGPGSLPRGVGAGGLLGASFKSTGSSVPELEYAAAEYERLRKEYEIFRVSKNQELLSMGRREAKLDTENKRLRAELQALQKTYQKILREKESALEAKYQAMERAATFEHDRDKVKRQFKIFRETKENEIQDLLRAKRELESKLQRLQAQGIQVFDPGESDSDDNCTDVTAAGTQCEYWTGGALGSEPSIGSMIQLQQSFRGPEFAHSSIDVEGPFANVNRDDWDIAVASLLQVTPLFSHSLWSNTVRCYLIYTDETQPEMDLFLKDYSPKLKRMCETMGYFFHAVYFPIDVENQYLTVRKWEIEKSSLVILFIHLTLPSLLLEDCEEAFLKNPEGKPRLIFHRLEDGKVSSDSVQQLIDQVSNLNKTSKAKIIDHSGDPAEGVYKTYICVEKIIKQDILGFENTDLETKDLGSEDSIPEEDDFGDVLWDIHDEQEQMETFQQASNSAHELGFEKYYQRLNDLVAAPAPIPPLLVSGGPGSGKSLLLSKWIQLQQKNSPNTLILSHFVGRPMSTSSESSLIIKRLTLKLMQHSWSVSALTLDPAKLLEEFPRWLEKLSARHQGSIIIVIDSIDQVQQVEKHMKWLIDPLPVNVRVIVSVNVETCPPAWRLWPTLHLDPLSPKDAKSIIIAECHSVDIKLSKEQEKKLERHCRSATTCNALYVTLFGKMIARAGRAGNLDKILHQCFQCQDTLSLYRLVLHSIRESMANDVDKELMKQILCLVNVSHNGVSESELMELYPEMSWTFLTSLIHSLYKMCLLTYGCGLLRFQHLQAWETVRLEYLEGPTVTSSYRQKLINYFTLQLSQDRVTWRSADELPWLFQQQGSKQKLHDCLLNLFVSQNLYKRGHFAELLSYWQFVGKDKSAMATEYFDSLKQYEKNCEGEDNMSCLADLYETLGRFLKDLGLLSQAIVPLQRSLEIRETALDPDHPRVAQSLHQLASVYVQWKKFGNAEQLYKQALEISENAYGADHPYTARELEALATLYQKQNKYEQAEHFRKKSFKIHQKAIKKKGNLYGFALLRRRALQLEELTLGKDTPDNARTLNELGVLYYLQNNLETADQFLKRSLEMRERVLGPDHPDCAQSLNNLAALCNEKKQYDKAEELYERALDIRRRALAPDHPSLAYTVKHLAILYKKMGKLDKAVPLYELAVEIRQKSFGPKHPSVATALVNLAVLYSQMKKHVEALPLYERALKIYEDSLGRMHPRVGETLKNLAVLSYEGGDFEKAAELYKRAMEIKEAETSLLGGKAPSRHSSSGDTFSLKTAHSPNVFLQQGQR
UniProt Q9UG01: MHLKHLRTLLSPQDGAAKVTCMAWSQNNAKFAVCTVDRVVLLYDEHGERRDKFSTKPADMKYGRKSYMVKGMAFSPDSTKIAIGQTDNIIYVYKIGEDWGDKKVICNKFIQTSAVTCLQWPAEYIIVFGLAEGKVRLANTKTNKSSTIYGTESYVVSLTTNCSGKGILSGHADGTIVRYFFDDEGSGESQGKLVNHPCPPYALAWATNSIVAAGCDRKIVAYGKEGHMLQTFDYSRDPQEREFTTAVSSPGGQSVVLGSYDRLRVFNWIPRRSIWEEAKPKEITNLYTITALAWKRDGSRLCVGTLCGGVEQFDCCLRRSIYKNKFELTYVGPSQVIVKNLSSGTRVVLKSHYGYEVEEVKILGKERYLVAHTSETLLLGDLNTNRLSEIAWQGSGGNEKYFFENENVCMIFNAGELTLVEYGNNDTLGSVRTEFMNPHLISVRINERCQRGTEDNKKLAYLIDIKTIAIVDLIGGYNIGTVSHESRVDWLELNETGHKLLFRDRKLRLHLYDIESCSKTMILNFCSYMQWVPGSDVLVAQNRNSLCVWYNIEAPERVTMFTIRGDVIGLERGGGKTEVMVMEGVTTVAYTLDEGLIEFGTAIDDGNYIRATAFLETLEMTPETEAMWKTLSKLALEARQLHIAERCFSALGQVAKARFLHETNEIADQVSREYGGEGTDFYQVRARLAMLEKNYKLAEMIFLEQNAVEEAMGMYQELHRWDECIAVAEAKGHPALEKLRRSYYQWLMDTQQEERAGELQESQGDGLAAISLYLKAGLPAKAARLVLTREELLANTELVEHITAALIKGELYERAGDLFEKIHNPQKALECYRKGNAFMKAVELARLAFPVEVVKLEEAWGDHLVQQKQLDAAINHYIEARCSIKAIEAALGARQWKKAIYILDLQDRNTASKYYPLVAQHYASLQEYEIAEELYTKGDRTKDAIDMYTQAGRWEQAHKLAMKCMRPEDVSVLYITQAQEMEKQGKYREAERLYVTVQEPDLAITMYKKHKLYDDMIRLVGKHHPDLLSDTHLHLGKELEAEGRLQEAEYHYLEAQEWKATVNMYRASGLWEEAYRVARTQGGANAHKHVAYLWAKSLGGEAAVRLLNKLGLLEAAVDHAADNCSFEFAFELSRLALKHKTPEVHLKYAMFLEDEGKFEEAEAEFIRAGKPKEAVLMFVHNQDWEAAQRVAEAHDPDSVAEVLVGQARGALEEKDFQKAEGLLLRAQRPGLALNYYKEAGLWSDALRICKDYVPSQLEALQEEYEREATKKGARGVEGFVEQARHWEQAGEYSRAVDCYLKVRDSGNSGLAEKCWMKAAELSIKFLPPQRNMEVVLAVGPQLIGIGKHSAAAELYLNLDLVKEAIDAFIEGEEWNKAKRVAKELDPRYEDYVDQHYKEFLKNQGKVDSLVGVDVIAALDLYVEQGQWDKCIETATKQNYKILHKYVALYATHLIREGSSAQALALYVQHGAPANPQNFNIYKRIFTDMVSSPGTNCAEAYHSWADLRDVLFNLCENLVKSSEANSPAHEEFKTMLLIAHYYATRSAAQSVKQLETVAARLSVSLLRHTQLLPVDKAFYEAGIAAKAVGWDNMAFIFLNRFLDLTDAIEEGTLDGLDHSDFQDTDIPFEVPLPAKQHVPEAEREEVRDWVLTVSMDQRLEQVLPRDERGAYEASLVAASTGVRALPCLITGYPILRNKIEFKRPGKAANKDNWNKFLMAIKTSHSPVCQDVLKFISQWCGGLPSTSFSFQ

Experiment [1] deals with FLAG-tagged EIF3B (UniProt P55884).
The target in experiment [2] is T1, FLAG-tagged DZIP1 (UniProt Q86YF9).
T1 sequence: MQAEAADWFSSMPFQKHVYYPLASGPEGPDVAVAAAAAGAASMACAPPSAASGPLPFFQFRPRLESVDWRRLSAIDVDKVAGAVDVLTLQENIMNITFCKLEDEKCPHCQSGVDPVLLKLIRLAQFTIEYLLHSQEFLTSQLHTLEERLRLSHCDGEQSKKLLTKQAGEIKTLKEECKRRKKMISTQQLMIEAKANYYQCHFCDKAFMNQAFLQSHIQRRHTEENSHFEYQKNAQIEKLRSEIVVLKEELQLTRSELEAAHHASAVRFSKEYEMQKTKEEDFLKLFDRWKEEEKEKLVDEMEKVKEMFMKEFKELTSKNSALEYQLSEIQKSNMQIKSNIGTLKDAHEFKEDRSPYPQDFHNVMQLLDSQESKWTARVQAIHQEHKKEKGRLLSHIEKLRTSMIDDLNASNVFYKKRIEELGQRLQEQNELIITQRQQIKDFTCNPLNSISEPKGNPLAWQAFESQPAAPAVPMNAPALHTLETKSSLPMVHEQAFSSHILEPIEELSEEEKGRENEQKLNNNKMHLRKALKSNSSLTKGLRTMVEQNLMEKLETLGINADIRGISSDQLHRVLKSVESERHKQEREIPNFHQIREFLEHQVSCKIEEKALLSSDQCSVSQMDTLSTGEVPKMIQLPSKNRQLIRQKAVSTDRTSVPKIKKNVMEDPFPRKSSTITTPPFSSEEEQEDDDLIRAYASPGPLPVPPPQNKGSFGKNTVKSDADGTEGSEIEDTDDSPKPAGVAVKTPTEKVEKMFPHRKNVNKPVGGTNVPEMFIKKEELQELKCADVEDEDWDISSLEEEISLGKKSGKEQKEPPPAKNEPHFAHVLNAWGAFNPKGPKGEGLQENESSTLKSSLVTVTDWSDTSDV

In experiment [3] the target is FLAG-tagged NPHP3 (UniProt Q7Z494).
The target in experiment [4] is IFT172 (UniProt Q9UG01).

This note sets out measurements from PMC6166740.

No constants are given. Whether binding was seen depends on the method and setting. Binding seen in cells or lysates may run through a third protein. Some binding calls cover weakened binding; strength is not graded here. Sequences can lack the tags named with a protein.

B1: V5-tagged ANKS6 (ankyrin repeat and sterile alpha motif domain-containing 6) (protein, UniProt Q68DC2 1-871)
chain: MGEGGLPPAFQLLLRACDQGDTETARRLLEPGAAEPAERGAEPEAGAEPAGAEVAGPGAAAAGAVGAPVPVDCSDEAGNTALQFAAAGGHEPLVRFLLRRGASVNSRNHYGWSALMQAARFGHVSVAHLLLDHGADVNAQNRLGASVLTVASRGGHLGVVKLLLEAGAFVDHHHPSGEQLGLGGSRDEPLDITALMAAIQHGHEAVVRLLMEWGADPNHAARTVGWSPLMLAALTGRLGVAQQLVEKGANPDHLSVLEKTAFEVALDCKHRDLVDYLDPLTTVRPKTDEEKRRPDIFHALKMGNFQLVKEIADEDPSHVNLVNGDGATPLMLAAVTGQLALVQLLVERHADVDKQDSVHGWTALMQATYHGNKEIVKYLLNQGADVTLRAKNGYTAFDLVMLLNDPDTELVRLLASVCMQVNKDKGRPSHQPPLPHSKVRQPWSIPVLPDDKGGLKSWWNRMSNRFRKLKLMQTLPRGLSSNQPLPFSDEPEPALDSTMRAAPQDKTSRSALPDAAPVTKDNGPGSTRGEKEDTLLTTMLRNGAPLTRLPSDKLKAVIPPFLPPSSFELWSSDRSRTRHNGKADPMKTALPQRASRGHPVGGGGTDTTPVRPVKFPSLPRSPASSANSGNFNHSPHSSGGSSGVGVSRHGGELLNRSGGSIDNVLSQIAAQRKKAAGLLEQKPSHRSSPVGPAPGSSPSELPASPAGGSAPVGKKLETSKRPPSGTSTTSKSTSPTLTPSPSPKGHTAESSVSSSSSHRQSKSSGGSSSGTITDEDELTGILKKLSLEKYQPIFEEQEVDMEAFLTLTDGDLKELGIKTDGSRQQILAAISELNAGKGRERQILQETIHNFHSSFESSASNTRAPGNSPCA
On to B1, for which the binding entry in experiment [1] and in experiment [2] was “binds” each time.

B2: V5-tagged NME3 (enzyme, UniProt Q13232 1-169)
chain: MICLVLTIFANLFPAACTGAHERTFLAVKPDGVQRRLVGEIVRRFERKGFKLVALKLVQASEELLREHYAELRERPFYGRLVKYMASGPVVAMVWQGLDVVRTSRALIGATNPADAPPGTIRGDFCIEVGKNLIHGSDSVESARREIALWFRADELLCWEDSAGHWLYE
Take B2: the binding result in experiment [3] and in experiment [4] was “binds” each time.
